Measured values as given in the supplement of paper PMC9135407.
Several values for one entry are separate records, joined by “and”; a condition that tells them apart may be missing. Identical values can stand only once. Counter-ions that a name gives are not always drawn. ± gives the standard deviation of the averaged measurements. The list shows a part of the results. Baselines shift from plate to plate; read single values as rough.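 Primary human stellate myofibroblasts activated in culture; inactivation shown by regained lipid droplets. Readout: fraction of Hoechst-counted cells exceeding a per-plate Bodipy threshold, duplicate wells, each plate with DMSO negative and nortriptyline positive controls. Hits: control-normalized score beyond the plate's top-tenth-percentile nortriptyline wells, or among its three best wells. Final well concentrations unstated.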

System: primary human hepatic stellate cells (donor 1)
Test: percent Bodipy-positive cells; higher = more lipid droplet accumulation
Conditions: 48 h
Description: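 Primary lipid accumulation screen in primary human hepatic stellate cell myofibroblasts (donor 1, passage 8) in 384-well plates. 100 nL of library compound was pin-transferred into 30 µL medium in duplicate, and cells were treated for 48 h. The 'Scaled' score combines distance from plate baseline, toxicity and reproducibility penalties, and is normalised to nortriptyline (positive) and DMSO (negative) controls on each plate. A hit is defined as scaled >0.85 or among the top 3 wells per plate.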

[1] = library stock concentration: 3.33 mM
[2] = library stock concentration: 10 mM
[3] = library stock concentration: 13.5 mM
[4] = library stock concentration: 1 mM
[5] = library stock concentration: 80 uM
[6] = library stock concentration: 400 uM
[7] = library stock concentration: 2 mM

CCCN(CCC)CCc1cccc2c1CC(=O)N2 [Ropinirole HCl]
percent Bodipy-positive cells [1]: 27.8 ± 0.3%
percent Bodipy-positive cells [2]: 15.5 ± 6.2%

N=C(N)c1ccc(N)cc1 [4-Aminobenzamidine dihydrochloride]
percent Bodipy-positive cells [2]: 45 ± 11%

CC(=O)O/N=C1/C(c2c(O)[nH]c3cc(Br)ccc23)=Nc2ccccc21 [GSK-3 Inhibitor X]
percent Bodipy-positive cells [1]: 16.4 ± 1.2%

C/C=C/c1ccc(OC)cc1 [Anethole]
percent Bodipy-positive cells [2]: 45 ± 1.5%
percent Bodipy-positive cells [3]: 9.98 ± 4.6%

C/C=C/c1ccc(OC)cc1 [Anethole, trans-]
percent Bodipy-positive cells [3]: 5.57 ± 2.1%

CCCCC(C)(C)[C@H](O)/C=C/[C@@H]1[C@@H](C/C=C\CCCC(=O)O)[C@H](O)C[C@H]1O [16,16-dimethyl Prostaglandin F2.beta.]
percent Bodipy-positive cells [4]: 23.3 ± 1.6%

C=C(C)[C@@H]1CC[C@]2(CO)CC[C@]3(C)[C@H](CC[C@@H]4[C@@]5(C)CC[C@H](O)C(C)(C)[C@@H]5CC[C@]43C)[C@@H]12 [Betulin]
percent Bodipy-positive cells: 8.87 ± 2.6%

CCCNC(=O)Nc1ccc(Oc2ncnc3cc(OC)c(OC)cc23)cc1Cl
percent Bodipy-positive cells [5]: 8.14 ± 2.9%
percent Bodipy-positive cells [6]: 14 ± 2.3%
percent Bodipy-positive cells [7]: 7.5 ± 2.7%
percent Bodipy-positive cells [1]: 22 ± 15%

CC(C)=CCC/C(C)=C/CC/C(C)=C/CC[C@]1(C)CCc2c(C)c(O)c(C)c(C)c2O1 [.alpha.-Tocotrienol]
percent Bodipy-positive cells [4]: 6.26 ± 1.4%

CC(COc1ccccc1Cc1ccccc1)N1CCCCC1.O=P(O)(O)O (stereo not drawn)
percent Bodipy-positive cells [2]: 87.2 ± 2.7%

O=C(O)c1cc(=O)c2c(Cl)cc(Cl)cc2[nH]1 [5,7-Dichlorokynurenic acid]
percent Bodipy-positive cells [2]: 28.5% and 5.64%

CN(C)C(=O)C(=O)c1cn(C)c2cc(Cl)c(C(=O)N3CCC(Cc4ccc(F)cc4)CC3)cc12
percent Bodipy-positive cells [2]: 10.5 ± 0.77%

CN(C)CC/C=C1\c2ccccc2Sc2ccc(Cl)cc21.Cl [Chlorprothixene hydrochloride]
percent Bodipy-positive cells: 84.8 ± 2.2%

CCCCC[C@H](O)/C=C/[C@H]1CC[C@@H](O)[C@@H]1CCCCCCC(=O)O [11-deoxy Prostaglandin F1.beta.]
percent Bodipy-positive cells [4]: 21.2 ± 1.9%

Oc1cccc(O)c1 [Resorcinol]
percent Bodipy-positive cells [2]: 10.1 ± 0.43%
percent Bodipy-positive cells (library stock concentration: 18.2 mM): 12.9 ± 6.3%

C[C@@H](O[C@H]1OCCN(Cc2n[nH]c(=O)[nH]2)[C@H]1c1ccc(F)cc1)c1cc(C(F)(F)F)cc(C(F)(F)F)c1 [Aprepitant]
percent Bodipy-positive cells [1]: 27.8 ± 9.8%
percent Bodipy-positive cells [2]: 14.6 ± 11%

CCCCN(CCCC)CC(O)c1cc(Cl)cc2c1-c1ccc(Cl)cc1/C2=C/c1ccc(Cl)cc1 (stereo not drawn) [Lumefantrine]
percent Bodipy-positive cells [2]: 36.8 ± 1.6%

Cc1cn(-c2cc(NC(=O)c3ccc(C)c(Nc4nccc(-c5cccnc5)n4)c3)cc(C(F)(F)F)c2)cn1 [Nilotinib (AMN107, Tasigna) (10 mM)]
percent Bodipy-positive cells [2]: 68.9 ± 23%

Cc1cn(-c2cc(NC(=O)c3ccc(C)c(Nc4nccc(-c5cccnc5)n4)c3)cc(C(F)(F)F)c2)cn1
percent Bodipy-positive cells [5]: 15.9 ± 6.1%
percent Bodipy-positive cells [6]: 9.97 ± 0.65%
percent Bodipy-positive cells [7]: 19.9 ± 11%
percent Bodipy-positive cells [2]: 10.9 ± 2.5%

Cc1cn(-c2cc(NC(=O)c3ccc(C)c(Nc4nccc(-c5cccnc5)n4)c3)cc(C(F)(F)F)c2)cn1 [Nilotinib (AMN107, Tasigna) (2 mM)]
percent Bodipy-positive cells [7]: 27.5 ± 18%

Cc1cn(-c2cc(NC(=O)c3ccc(C)c(Nc4nccc(-c5cccnc5)n4)c3)cc(C(F)(F)F)c2)cn1 [Nilotinib (AMN-107)]
percent Bodipy-positive cells [1]: 68.2 ± 25%
percent Bodipy-positive cells [2]: 97.4 ± 2.2%

Cc1cn(-c2cc(NC(=O)c3ccc(C)c(Nc4nccc(-c5cccnc5)n4)c3)cc(C(F)(F)F)c2)cn1 [Nilotinib (AMN107, Tasigna) (0.4 mM)]
percent Bodipy-positive cells [6]: 12.6 ± 2.9%

NC(=O)c1ccc(-c2nc(-c3ccccn3)c(-c3ccc4c(c3)OCO4)[nH]2)cc1
percent Bodipy-positive cells [4]: 14.8 ± 3.4%
percent Bodipy-positive cells [1]: 11.2 ± 3.5%
percent Bodipy-positive cells [2]: 18.4% and 13.2%
percent Bodipy-positive cells (library stock concentration: 13 mM): 28.8 ± 13%

Cc1cc(O)cc(C)c1Cl [Chloroxylenol]
percent Bodipy-positive cells [2]: 13.5 ± 1.2%

CC(C)(C)c1ccc(S(=O)(=O)/C=C/C#N)cc1
percent Bodipy-positive cells [2]: 16.7 ± 0.43%

Cl.O=C(NCCCN1CCCCCC1)C(c1ccccc1)C1CCCCC1 (stereo not drawn)
percent Bodipy-positive cells [2]: 59.2 ± 5.4%

CC(N)CCCC(C)(C)O (stereo not drawn) [Heptaminol hydrochloride]
percent Bodipy-positive cells: 28.5 ± 1.3%
percent Bodipy-positive cells [2]: 42.1 ± 8%

CCCCC[C@H](O)/C=C/[C@@H]1[C@H]2C/C(=C/CCCC(=O)O)C[C@H]2C[C@H]1O [Carbacyclin]
percent Bodipy-positive cells [4]: 20.2 ± 18%

CN1CCCN=C1/C=C/c1cccc(O)c1 [Oxantel pamoate]
percent Bodipy-positive cells: 31.9 ± 4.9%

O=[N+]([O-])c1ccc(CSc2ncnc3c2ncn3[C@@H]2O[C@H](CO)[C@@H](O)[C@H]2O)cc1 [S-(4-Nitrobenzyl)-6-thioinosine]
percent Bodipy-positive cells [2]: 26.8 ± 3.4%

Cn1cc(CNCC2CCN(c3ncc(C(=O)NO)cn3)CC2)c2ccccc21
percent Bodipy-positive cells [2]: 94.3 ± 2%

CC(=O)c1c(C)c2cnc(Nc3ccc(N4CCNCC4)cn3)nc2n(C2CCCC2)c1=O
percent Bodipy-positive cells [5]: 13.9 ± 5%
percent Bodipy-positive cells [6]: 8.26 ± 0.43%
percent Bodipy-positive cells [7]: 8.05 ± 5.8%
percent Bodipy-positive cells [1]: 26.2 ± 19%

Clc1ccc2c(N3CCN(CCCN4CCN(c5ccnc6cc(Cl)ccc56)CC4)CC3)ccnc2c1 [Piperaquine tetraphosphate tetrahydrate]
percent Bodipy-positive cells [2]: 71.6 ± 3.5%

CCCCCCCCCCCCC/C=C/[C@@H](O)[C@H](CO)N(C)C [N,N-Dimethylsphingosine]
percent Bodipy-positive cells [4]: 84.2 ± 6.3%

C[C@H]1[C@H](C)CC[C@]2(C(=O)O[C@@H]3O[C@H](CO[C@@H]4O[C@H](CO)[C@@H](O[C@@H]5O[C@H](C)[C@H](O)[C@@H](O)[C@H]5O)[C@H](O)[C@H]4O)[C@@H](O)[C@H](O)[C@H]3O)CC[C@]3(C)C(=CC[C@@H]4[C@@]5(C)C[C@@H](O)[C@H](O)[C@@](C)(CO)[C@@H]5CC[C@]43C)[C@H]12 [Asiaticoside]
percent Bodipy-positive cells: 7.77 ± 3.2%
